Earlier results in US20240002332A1, “Small Molecule Inhibitors of SARS-CoV-2 Infections” (priority 2020, published 2024).
For at least one compound, name, drawing or mass did not settle the structure.

System: COVID-19
Conditions: cited from earlier work

CCC(CC)COC(=O)[C@H](C)N[P@](=O)(OC[C@H]1O[C@@](C#N)(c2ccc3c(N)ncnn23)[C@H](O)[C@@H]1O)Oc1ccccc1 [Remdesivir]
median recovery time (placebo 15 days): 10 days | Kaplan-Meier estimate of mortality by day 15 (placebo […]): 6.7% | Kaplan-Meier estimate of mortality by day 29 (placebo […]): 11.4%
